Binding data for 1 substance are collected here from article PMC5819684.

Chains of the proteins cited; added tags and fusions are not shown.
UniProt Q9BXW9: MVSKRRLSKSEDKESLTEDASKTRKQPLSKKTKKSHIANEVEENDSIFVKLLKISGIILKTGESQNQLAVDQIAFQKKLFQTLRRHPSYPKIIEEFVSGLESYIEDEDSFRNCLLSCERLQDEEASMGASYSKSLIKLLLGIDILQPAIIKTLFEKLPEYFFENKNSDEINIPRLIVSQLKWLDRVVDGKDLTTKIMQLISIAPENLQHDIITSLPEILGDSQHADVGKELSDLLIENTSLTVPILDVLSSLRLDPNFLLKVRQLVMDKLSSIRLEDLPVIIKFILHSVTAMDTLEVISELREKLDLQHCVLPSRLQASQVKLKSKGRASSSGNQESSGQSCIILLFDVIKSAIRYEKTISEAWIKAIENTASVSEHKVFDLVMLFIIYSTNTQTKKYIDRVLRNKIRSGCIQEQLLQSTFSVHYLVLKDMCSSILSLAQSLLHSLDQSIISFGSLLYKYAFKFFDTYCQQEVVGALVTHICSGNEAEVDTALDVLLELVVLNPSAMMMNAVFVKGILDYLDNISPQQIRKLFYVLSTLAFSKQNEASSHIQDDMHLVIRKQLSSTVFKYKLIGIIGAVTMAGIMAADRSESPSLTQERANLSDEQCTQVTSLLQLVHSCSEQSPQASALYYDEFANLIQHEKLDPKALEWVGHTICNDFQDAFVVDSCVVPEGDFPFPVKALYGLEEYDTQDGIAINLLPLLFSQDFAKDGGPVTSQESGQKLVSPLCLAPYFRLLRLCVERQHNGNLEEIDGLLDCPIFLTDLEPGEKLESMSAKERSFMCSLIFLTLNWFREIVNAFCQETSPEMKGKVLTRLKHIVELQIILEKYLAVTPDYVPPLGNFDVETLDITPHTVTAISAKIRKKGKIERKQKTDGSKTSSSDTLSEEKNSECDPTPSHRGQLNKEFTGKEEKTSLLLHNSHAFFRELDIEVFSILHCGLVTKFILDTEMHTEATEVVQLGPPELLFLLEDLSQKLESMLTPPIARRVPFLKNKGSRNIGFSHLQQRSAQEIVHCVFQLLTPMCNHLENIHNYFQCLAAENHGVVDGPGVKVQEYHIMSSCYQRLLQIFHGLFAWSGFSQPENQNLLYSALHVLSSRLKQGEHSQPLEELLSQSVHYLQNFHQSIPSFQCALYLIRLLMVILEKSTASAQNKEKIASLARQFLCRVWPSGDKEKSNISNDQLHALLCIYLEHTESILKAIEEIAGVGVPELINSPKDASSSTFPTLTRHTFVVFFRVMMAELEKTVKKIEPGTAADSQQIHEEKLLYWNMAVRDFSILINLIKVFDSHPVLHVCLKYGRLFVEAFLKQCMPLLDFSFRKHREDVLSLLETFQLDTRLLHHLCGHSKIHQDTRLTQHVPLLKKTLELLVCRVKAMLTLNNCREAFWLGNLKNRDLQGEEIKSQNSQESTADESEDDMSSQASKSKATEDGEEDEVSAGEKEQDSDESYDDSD

These are yes or no findings as the source states them, for the method shown. Binding seen in cells or lysates may run through a third protein. Sequences can lack the tags named with a protein.

In the assay the target is T1, HA-HES1 (Hairy Enhancer of Split 1) (UniProt Q14469).
T1 sequence: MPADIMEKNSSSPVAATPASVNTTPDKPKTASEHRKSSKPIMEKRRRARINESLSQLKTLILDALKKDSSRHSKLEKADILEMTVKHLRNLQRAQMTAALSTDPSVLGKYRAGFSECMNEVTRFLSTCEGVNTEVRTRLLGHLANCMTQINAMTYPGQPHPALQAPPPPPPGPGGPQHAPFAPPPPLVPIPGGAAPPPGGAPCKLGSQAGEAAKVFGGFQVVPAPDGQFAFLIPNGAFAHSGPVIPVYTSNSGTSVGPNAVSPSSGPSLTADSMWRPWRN
As to the kind of experiment: co-IP; anti-HA immunoprecipitation from whole cell lysates of 293T cells transfected with HA-HES1 and Myc-tagged ubiquitin K48R (pCW8); 2 µg antibody overnight at 4 °C, protein-G magnetic beads; blotted for HES1 and FANCD2.

With “FANCD2 (Fanconi anemia D2) (from UniProt Q9BXW9 1-1451)”, the binding entry is on record as “no binding”.
